{"source": "PubChem BioAssay AID686937 (Drosophila RNAi Screening Center, 2013)", "aim": "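Genes in the fly needed for secretion of protein constitutively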 (primary screen)", "cell system": "Drosophila S2 cells expressing secreted horseradish peroxidase", "knock-down reagent": "long dsRNA against Drosophila genes", "duration": "about 5.5 days (5 days dsRNA, then 12 h reporter induction)", "challenge": "reporter expression induced after 5 days of dsRNA, read 12 h later; inducer not stated", "read-out": "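Chemiluminescent measurement of peroxidase in the medium 12 h after reporter induction, following 5 days of dsRNA, given as a z-score per plate; higher means more secretion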", "direction": "z-score: higher = more reporter secreted into medium", "note": "The deposit covers about 23,000 reagents; shown is a random part of those that have a named target and a result. 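Reduced-secretion tags in replicate 1 do not always agree with the z-scores; no criterion for assigning the tags was given.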 Names joined by + are all predicted targets of the reagent. Not all columns of the deposit are shown. Not given: the amount of reagent."}
{"target": "CG4953 (GeneID 34373)", "DRSC id": "DRSC02792", "z-score, replicate 1": 0.48}
{"target": "CG10209 (GeneID 36652)", "DRSC id": "DRSC05980", "z-score, replicate 1": 0.17}
{"target": "CG1671 (GeneID 36019)", "DRSC id": "DRSC06617", "z-score, replicate 1": 0.29}
{"target": "CG5910 (GeneID 40264)", "DRSC id": "DRSC11786", "z-score, replicate 1": 0.4}
{"target": "CG18659 (GeneID 35929)", "DRSC id": "DRSC06784", "z-score, replicate 1": -0.13}
{"target": "Mgat4a (GeneID 39608)", "DRSC id": "DRSC09326", "z-score, replicate 1": 0.34}
{"target": "Mgat4a (GeneID 39608)", "DRSC id": "DRSC11070", "z-score, replicate 1": 0.04}
{"target": "CG7568 (GeneID 43482)", "DRSC id": "DRSC16259", "z-score, replicate 1": 0.28}
{"target": "flap (GeneID 37519)", "DRSC id": "DRSC03918", "z-score, replicate 1": 0.06}
{"target": "flap (GeneID 37519)", "DRSC id": "DRSC04087", "z-score, replicate 1": 0.19}
{"target": "side-III (GeneID 4379844)", "DRSC id": "DRSC12155", "z-score, replicate 1": 0.4}
{"target": "side-III (GeneID 4379844)", "DRSC id": "DRSC12263", "z-score, replicate 1": -0.42}
{"target": "side-III (GeneID 4379844)", "DRSC id": "DRSC12264", "z-score, replicate 1": 0.15}
{"target": "Pcl (GeneID 37069)", "DRSC id": "DRSC07503", "z-score, replicate 1": -0.73}
{"target": "CR11235 (GeneID 10178883)", "DRSC id": "DRSC20480", "z-score, replicate 1": 0.47}
{"target": "CG2247 (GeneID 32111)", "DRSC id": "DRSC19844", "z-score, replicate 1": 0.21}
{"target": "Dhc1 (GeneID 41171)", "DRSC id": "DRSC12748", "z-score, replicate 1": 0.44}
{"target": "Dhc1 (GeneID 41171)", "DRSC id": "DRSC16503", "z-score, replicate 1": 0.27}
{"target": "fred (GeneID 33613)", "DRSC id": "DRSC00349", "z-score, replicate 1": 0.13}
{"target": "fred (GeneID 33613)", "DRSC id": "DRSC00599", "z-score, replicate 1": 0.47}
{"target": "fred (GeneID 33613)", "DRSC id": "DRSC00601", "z-score, replicate 1": 0.03}
{"target": "fred (GeneID 33613)", "DRSC id": "DRSC00602", "z-score, replicate 1": 0.01}
{"target": "fred (GeneID 33613)", "DRSC id": "DRSC21906", "z-score, replicate 1": 0.66}
{"target": "beta4GalT7 (GeneID 42991)", "DRSC id": "DRSC14385", "z-score, replicate 1": 0.1}
{"target": "Ir94e (GeneID 42765)", "DRSC id": "DRSC15229", "z-score, replicate 1": -1.23}
{"target": "Or19b + Or19a", "DRSC id": "DRSC22604", "z-score, replicate 1": 0.29}
{"target": "LysX (GeneID 38122)", "DRSC id": "DRSC08678", "z-score, replicate 1": 0.49}
{"target": "eIF5B (GeneID 44261)", "DRSC id": "DRSC08429", "z-score, replicate 1": -1.64}
{"target": "eIF5B (GeneID 44261)", "DRSC id": "DRSC08710", "z-score, replicate 1": -2.06}
{"target": "rut (GeneID 32406)", "DRSC id": "DRSC20367", "z-score, replicate 1": -0.58}
{"target": "CG33298 (GeneID 2768929)", "DRSC id": "DRSC02210", "z-score, replicate 1": 0.31}
{"target": "CG33298 (GeneID 2768929)", "DRSC id": "DRSC02672", "z-score, replicate 1": 0.37}
{"target": "stnB + stnA", "DRSC id": "DRSC20969", "z-score, replicate 1": -1.62}
{"target": "stnB + stnA", "DRSC id": "DRSC21112", "z-score, replicate 1": 0.72}
{"target": "stnB + stnA", "DRSC id": "DRSC21113", "z-score, replicate 1": 0.13}
{"target": "CG12506 (GeneID 33249)", "DRSC id": "DRSC00347", "z-score, replicate 1": 0.55}
{"target": "rho-6 (GeneID 34640)", "DRSC id": "DRSC02588", "z-score, replicate 1": 0.07}
{"target": "CG18278 + CG30059", "DRSC id": "DRSC05418", "z-score, replicate 1": 0.55}
{"target": "CG10514 (GeneID 43052)", "DRSC id": "DRSC14249", "z-score, replicate 1": 0.11}
{"target": "CG4294 (GeneID 37579)", "DRSC id": "DRSC04460", "z-score, replicate 1": -0.01}
{"target": "GCC185 (GeneID 41459)", "DRSC id": "DRSC15493", "z-score, replicate 1": 0.05}
{"target": "CstF64 (GeneID 42239)", "DRSC id": "DRSC16616", "z-score, replicate 1": -0.42}
{"target": "Afti (GeneID 41744)", "DRSC id": "DRSC16440", "z-score, replicate 1": 0.41}
{"target": "Spn31A (GeneID 34339)", "DRSC id": "DRSC02780", "z-score, replicate 1": 0.27}
{"target": "CG43084 (GeneID 12797912)", "DRSC id": "DRSC09998", "z-score, replicate 1": 0.02}
{"target": "Rpn13 (GeneID 36545)", "DRSC id": "DRSC06379", "z-score, replicate 1": -0.13}
{"target": "Asph (GeneID 36778)", "DRSC id": "DRSC06783", "z-score, replicate 1": 0.56}
{"target": "Asph (GeneID 36778)", "DRSC id": "DRSC07171", "z-score, replicate 1": 0.37}
{"target": "Arp3 (GeneID 38898)", "DRSC id": "DRSC09669", "z-score, replicate 1": 0.47}
{"target": "CG34286 (GeneID 5740178)", "DRSC id": "DRSC13372", "z-score, replicate 1": 0.07}
{"target": "CG34286 (GeneID 5740178)", "DRSC id": "DRSC21790", "z-score, replicate 1": -0.78}

Records above whose gene name begins with S or s (7):
{"target": "side-III (GeneID 4379844)", "DRSC id": "DRSC12155", "z-score, replicate 1": 0.4}
{"target": "side-III (GeneID 4379844)", "DRSC id": "DRSC12263", "z-score, replicate 1": -0.42}
{"target": "side-III (GeneID 4379844)", "DRSC id": "DRSC12264", "z-score, replicate 1": 0.15}
{"target": "stnB + stnA", "DRSC id": "DRSC20969", "z-score, replicate 1": -1.62}
{"target": "stnB + stnA", "DRSC id": "DRSC21112", "z-score, replicate 1": 0.72}
{"target": "stnB + stnA", "DRSC id": "DRSC21113", "z-score, replicate 1": 0.13}
{"target": "Spn31A (GeneID 34339)", "DRSC id": "DRSC02780", "z-score, replicate 1": 0.27}
